Reference: PMC6215009
Results are given in words; binding and its absence hold for the method and conditions named. Binding seen in cells or lysates may run through a third protein. These calls come from enrichment with a bait or labelling near it, and not all partners need be listed.

Sequences of proteins named here, by UniProt entry; tags and fusion partners are left off.
UniProt P59598: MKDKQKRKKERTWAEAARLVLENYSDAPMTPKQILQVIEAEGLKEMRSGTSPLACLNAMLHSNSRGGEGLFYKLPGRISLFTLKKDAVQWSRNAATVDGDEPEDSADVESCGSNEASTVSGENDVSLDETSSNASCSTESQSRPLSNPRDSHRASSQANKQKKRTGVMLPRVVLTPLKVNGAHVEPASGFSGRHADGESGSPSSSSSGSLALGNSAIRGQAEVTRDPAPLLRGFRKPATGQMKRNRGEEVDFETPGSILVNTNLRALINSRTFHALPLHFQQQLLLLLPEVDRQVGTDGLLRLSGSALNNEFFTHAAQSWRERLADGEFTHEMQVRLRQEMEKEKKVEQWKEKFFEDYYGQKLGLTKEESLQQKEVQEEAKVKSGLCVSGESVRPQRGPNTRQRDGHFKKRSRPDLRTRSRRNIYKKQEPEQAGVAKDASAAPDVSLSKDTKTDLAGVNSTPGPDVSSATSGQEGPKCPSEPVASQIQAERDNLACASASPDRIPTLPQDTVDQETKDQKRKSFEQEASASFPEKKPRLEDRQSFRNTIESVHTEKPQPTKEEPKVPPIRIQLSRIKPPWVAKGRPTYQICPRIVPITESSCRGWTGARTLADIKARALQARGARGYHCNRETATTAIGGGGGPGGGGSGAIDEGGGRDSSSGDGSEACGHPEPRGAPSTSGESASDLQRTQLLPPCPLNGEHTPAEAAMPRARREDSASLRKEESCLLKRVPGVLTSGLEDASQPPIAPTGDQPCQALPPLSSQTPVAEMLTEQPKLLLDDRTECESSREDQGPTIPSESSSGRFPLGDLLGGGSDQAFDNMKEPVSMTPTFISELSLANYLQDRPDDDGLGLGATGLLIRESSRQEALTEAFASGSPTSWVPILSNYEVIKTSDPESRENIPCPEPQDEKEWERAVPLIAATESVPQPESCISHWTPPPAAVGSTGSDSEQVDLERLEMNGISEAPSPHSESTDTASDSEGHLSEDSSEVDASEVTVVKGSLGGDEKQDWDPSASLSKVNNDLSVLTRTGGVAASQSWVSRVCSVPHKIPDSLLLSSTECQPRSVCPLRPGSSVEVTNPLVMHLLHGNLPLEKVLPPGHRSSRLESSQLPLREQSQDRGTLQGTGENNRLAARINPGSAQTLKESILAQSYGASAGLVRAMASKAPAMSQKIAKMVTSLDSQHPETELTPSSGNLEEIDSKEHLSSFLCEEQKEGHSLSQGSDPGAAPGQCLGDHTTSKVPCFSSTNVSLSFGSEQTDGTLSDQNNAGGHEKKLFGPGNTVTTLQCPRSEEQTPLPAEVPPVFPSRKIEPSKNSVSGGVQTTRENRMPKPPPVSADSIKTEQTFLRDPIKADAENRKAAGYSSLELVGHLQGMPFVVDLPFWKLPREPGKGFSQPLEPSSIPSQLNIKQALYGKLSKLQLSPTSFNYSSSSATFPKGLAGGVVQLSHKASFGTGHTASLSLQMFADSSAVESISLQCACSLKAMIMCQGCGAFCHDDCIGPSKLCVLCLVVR
UniProt P45973: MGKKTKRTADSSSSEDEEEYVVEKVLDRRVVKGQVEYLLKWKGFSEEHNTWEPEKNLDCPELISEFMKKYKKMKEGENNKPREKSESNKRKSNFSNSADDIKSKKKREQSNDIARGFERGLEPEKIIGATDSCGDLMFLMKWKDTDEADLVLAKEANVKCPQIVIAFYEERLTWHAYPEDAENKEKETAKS

Biological target: Flag-tagged murine Asxl1 (stably expressed in HEK293 cells) (mouse) (UniProt P59598)
Experiment: affinity purification with mass spectrometry; IP with anti-Flag antibody-coupled beads from HEK293 cells stably expressing Flag-tagged murine Asxl1; SDS-PAGE, Coomassie Blue, LC-MS/MS

binding | Molecule
binds | CBX5, endogenous human (from UniProt P45973 1-191)
binds | OGT, endogenous human (protein, UniProt O15294 1-1046) MASSVGNVADSTEPTKRMLSFQGLAELAHREYQAGDFEAAERHCMQLWRQEPDNTGVLLLLSSIHFQCRRLDRSAHFSTLAIKQNPLLAEAYSNLGNVYKERGQLQEAIEHYRHALRLKPDFIDGYINLAAALVAAGDMEGAVQAYVSALQYNPDLYCVRSDLGNLLKALGRLEEAKACYLKAIETQPNFAVAWSNLGCVFNAQGEIWLAIHHFEKAVTLDPNFLDAYINLGNVLKEARIFDRAVAAYLRALSLSPNHAVVHGNLACVYYEQGLIDLAIDTYRRAIELQPHFPDAYCNLANALKEKGSVAEAEDCYNTALRLCPTHADSLNNLANIKREQGNIEEAVRLYRKALEVFPEFAAAHSNLASVLQQQGKLQEALMHYKEAIRISPTFADAYSNMGNTLKEMQDVQGALQCYTRAIQINPAFADAHSNLASIHKDSGNIPEAIASYRTALKLKPDFPDAYCNLAHCLQIVCDWTDYDERMKKLVSIVADQLEKNRLPSVHPHHSMLYPLSHGFRKAIAERHGNLCLDKINVLHKPPYEHPKDLKLSDGRLRVGYVSSDFGNHPTSHLMQSIPGMHNPDKFEVFCYALSPDDGTNFRVKVMAEANHFIDLSQIPCNGKAADRIHQDGIHILVNMNGYTKGARNELFALRPAPIQAMWLGYPGTSGALFMDYIITDQETSPAEVAEQYSEKLAYMPHTFFIGDHANMFPHLKKKAVIDFKSNGHIYDNRIVLNGIDLKAFLDSLPDVKIVKMKCPDGGDNADSSNTALNMPVIPMNTIAEAVIEMINRGQIQITINGFSISNGLATTQINNKAATGEEVPRTIIVTTRSQYGLPEDAIVYCNFNQLYKIDPSTLQMWANILKRVPNSVLWLLRFPAVGEPNIQQYAQNMGLPQNRIIFSPVAPKEEHVRRGQLADVCLDTPLCNGHTTGMDVLWAGTPMVTMPGETLASRVAASQLTCLGCLELIAKNRQEYEDIAVKLGTDLEYLKKVRGKVWKQRISSPLFNTKQYTMELERLYLQMWEHYAAGNKPDHMIKPVEVTESA
